Measurements: US20160201132A1, “GENE EXPRESSION BIOMARKERS OF LAQUINIMOD RESPONSIVENESS” (Teva Pharmaceutical Industries Ltd., priority 2013, published 2016)
The source gives many values for each of these; only a part stands here.

System: PBMC of RRMS patients
Test: Gene expression microarray analysis (HG-U133A-2) of PBMC from RRMS patients treated with LAQ, ancillary study to ALLEGRO
Assay type: in vivo, human
Conditions: for Fold-Change (4.0 vs. 0.0): after six months of treatment
Text: The goal of this ancillary study was to characterize gene expression changes and corresponding biological mechanisms induced in PBMC of RRMS patients by LAQ treatment. According to ALLEGRO clinical trial inclusion criteria, 25 patients were randomly assigned to receive LAQ (n=13, age 38.8±2.3 years, female/male ratio: 8/5) or placebo (n=12, age 37.2±3.4 years, female/male ratio: 8/4).
Peripheral blood samples were obtained from RRMS patients at baseline before start of LAQ treatment or placebo, after 0, 1, 6 and 24 month of treatment (visit 0, 1, 6 and 7 according to ALLEGRO clinical trial protocol correspondently) for gene microarray analysis.
Briefly, 1) Peripheral blood mononuclear cells (PBMC) were obtained from RRMS patients that participated in ALLEGRO and were treated daily with 0.6 mg LAQ or placebo. PBMC were subjected for gene expression analysis (HU-133A-2-Affymatrix arrays) at baseline and at 1 and 6 months of LAQ treatment; 2) Data was analyzed by Partek Genomics Solution software. Most informative genes (MIGs) were defined as those that differentiated between groups with p<0.01. Gene functional annotation, enrichment and pathway analysis were performed by Ingenuity software. For each time point, genes that changed in placebo group were excluded from further analysis; and 3) Verification of LAQ related mechanism was performed by Western blot.
PBMC were extracted from 15 ml peripheral blood, separated by Ficoll-Hypaque gradient. Total RNA was extracted using both Trizol (Invitrogen, USA) and Phase-Lock-Gel columns (Eppendorf, Germany) including a DNase digestion step. RNA integrity was assessed by RNA Experion automated electrophoresis system (Bio-Rad Laboratories, Hercules, Calif.).
Probe synthesis using 3 μg total RNA, hybridization, detection, and scanning was performed according to the standard Affymetrix, Inc. USA protocols; cDNA was synthesized using the Two-Cycle cDNA Synthesis Kit (Affymetrix, Inc., USA), and in-vitro transcription performed with the GeneChip IVT Labeling Kit (Affymetrix, Inc., USA). The biotin-labeled IVT-RNA was hybridized to HG-U133A-2 arrays containing 18,400 gene transcripts, each corresponding to 14,500 well-annotated human genes, washed in a GeneChip Fluidics Station 450 (Hewlett Packard, USA, GeneArray-™ scanner G2500A) and scanned according to the manufacturer's protocol (Affymetrix, Inc., USA).
Data analysis was performed on Partek Genomics Solution software (www.partek.com; Partek Incorporated, St. Louis, Mo.). Expression values were computed from raw CEL files by applying the Robust Multi-Chip Average (RMA) background correction algorithm. RMA correction included: 1) values background correction; 2) quintile normalization; 3) log 2 transformation; and 4) median polish summarization. The ANOVA, Repeated Measures and correlation analysis implicated in Partek software ware applied to evaluate LAQ effects. Most informative genes MIGs were defined as those that differentiated between experimental groups with p<0.01. All p-values were calculated for False Discovery Rate (FDR) multiple test correction at p=0.05.
Additionally, significance of individual genes was tested by parametric T-test and non parametric Mann-Whitney test using Bootstrapping approach based on repeated permutations of the data with 5% FDR for multiple testing.
Gene functional annotation, enrichment, and pathway analyses to identify the leading biological pathways that operated under LAQ treatment were performed by Ingenuity Pathways Analysis software (www.ingenuity.com).
ANOVA analysis was used to compare PBMC gene expression after 1, 6 or 24 month of LAQ treatment with baseline gene expression.
For each time point inventors performed analysis source of variation in dataset. (FIG. 1). Age, gender and batch effects were considered as confounders regarding LAQ or Placebo related changes. For each time point genes associated with Placebo effect were evaluated and excluded from further analysis. […]

**Q.** What does the source list for `CCN(C(=O)c1c(O)c2c(Cl)cccc2n(C)c1=O)c1ccccc1` [LAQ, 5-chloro-N-ethyl-4-hydroxy-1-methyl-2-oxo-N-phenyl-1,2-dihydroquinoline-3-carboxamide]?
**A.** Fold-Change (1.0 vs. 0.0) (221764_at C19orf22, one month of treatment vs baseline): −1.1412; Fold-Change (1.0 vs. 0.0) (221942_s_at GUCY1A3, one month of treatment vs baseline): −1.708; Fold-Change (1.0 vs. 0.0) (222121_at SGEF, one month of treatment vs baseline): −1.1164; Fold-Change (1.0 vs. 0.0) (222382_x_at NUP205, one month of treatment vs baseline): −1.142; Fold-Change (4.0 vs. 0.0) (ABCA2 expression): −1.205; Fold-Change (4.0 vs. 0.0) (ABCB11 expression): −1.224; Fold-Change (1.0 vs. 0.0) (ABL1 202123_s_at, one month of treatment): −1.102; Fold-Change (4.0 vs. 0.0) (ACOT11 expression): −1.21; Fold-Change (1.0 vs. 0.0) (ACSBG1 206465_at, one month of treatment): −1.549; Fold-Change (4.0 vs. 0.0) (ACTC1 expression): −1.201; Fold-Change (4.0 vs. 0.0) (ACTL6B expression): −1.195; Fold-Change (4.0 vs. 0.0) (ADAM12 expression): −1.197; Fold-Change (4.0 vs. 0.0) (ADAM22 expression): −1.195; Fold-Change (4.0 vs. 0.0) (ADCY2 expression): −1.204; Fold-Change (4.0 vs. 0.0) (ADH7 expression): −1.202; Fold-Change (4.0 vs. 0.0) (ALDH1A3 expression): −1.208; Fold-Change (4.0 vs. 0.0) (ALDH3A1 expression): −1.202; Fold-Change (1.0 vs. 0.0) (ALOX12 207206_s_at, one month of treatment): −1.836; Fold-Change (4.0 vs. 0.0) (AMH expression): −1.216; Fold-Change (4.0 vs. 0.0) (AOC2 expression): −1.21; Fold-Change (4.0 vs. 0.0) (AP3M2 expression): −1.197; Fold-Change (4.0 vs. 0.0) (APBB2 expression): −1.204; Fold-Change (4.0 vs. 0.0) (APOC2 expression): −1.21; Fold-Change (4.0 vs. 0.0) (ARHGAP1 expression): −1.197; Fold-Change (4.0 vs. 0.0) (ARHGEF4 expression): −1.224; Fold-Change (4.0 vs. 0.0) (ASCL1 expression): −1.22; Fold-Change (4.0 vs. 0.0) (ATP2B2 expression): −1.205; Fold-Change (1.0 vs. 0.0) (ATP9A 212062_at, one month of treatment): −1.441; Fold-Change (4.0 vs. 0.0) (AVL9 expression): −1.214; Fold-Change (4.0 vs. 0.0) (B3GALT5 expression): −1.198; Fold-Change (1.0 vs. 0.0) (BAT2D1 211948_x_at, one month of treatment): −1.083; Fold-Change (4.0 vs. 0.0) (BTN1A1 expression): −1.199; Fold-Change (4.0 vs. 0.0) (C1orf106 expression): −1.219; Fold-Change (1.0 vs. 0.0) (C5orf4 48031_r_at, one month of treatment): −1.519; Fold-Change (1.0 vs. 0.0) (C5orf4 220751_s_at, one month of treatment): −1.967; Fold-Change (4.0 vs. 0.0) (C6 expression): −1.221; Fold-Change (4.0 vs. 0.0) (C6orf208 expression): −1.222; Fold-Change (4.0 vs. 0.0) (C8B expression): −1.2033; Fold-Change (4.0 vs. 0.0) (C9orf7 expression): −1.2011; Fold-Change (4.0 vs. 0.0) (C11orf20 expression): −1.2225; Fold-Change (4.0 vs. 0.0) (C16orf68 expression): −1.22; Fold-Change (4.0 vs. 0.0) (C20orf195 expression): −1.197; Fold-Change (1.0 vs. 0.0) (CA2 209301_at, one month of treatment): −1.69; Fold-Change (4.0 vs. 0.0) (CACNB1 expression): −1.196; Fold-Change (1.0 vs. 0.0) (CALD1 201615_x_at, one month of treatment): −1.442; Fold-Change (1.0 vs. 0.0) (CALM3 200622_x_at, one month of treatment): −1.2967; Fold-Change (4.0 vs. 0.0) (CASR expression): −1.211; Fold-Change (4.0 vs. 0.0) (CCDC33 expression): −1.209; Fold-Change (4.0 vs. 0.0) (CCDC40 expression): −1.219; Fold-Change (4.0 vs. 0.0) (CCDC87 expression): −1.201; Fold-Change (4.0 vs. 0.0) (CCDC134 expression): −1.219; Fold-Change (4.0 vs. 0.0) (CCT8 expression): −1.215; Fold-Change (4.0 vs. 0.0) (CD84 expression): −1.224; Fold-Change (4.0 vs. 0.0) (CD177 expression): −1.223; Fold-Change (1.0 vs. 0.0) (CDC14B 221556_at, one month of treatment): −1.488; Fold-Change (4.0 vs. 0.0) (CDC42BPA expression): −1.217; Fold-Change (4.0 vs. 0.0) (CDH7 expression): −1.2116; Fold-Change (1.0 vs. 0.0) (CDK2AP1 201938_at, one month of treatment): −1.366; Fold-Change (4.0 vs. 0.0) (CDS1 expression): −1.196; Fold-Change (1.0 vs. 0.0) (CELSR3 40020_at, one month of treatment): −1.121; Fold-Change (1.0 vs. 0.0) (CELSR3 205165_at, one month of treatment): −1.165; Fold-Change (4.0 vs. 0.0) (CHAF1B expression): −1.196; Fold-Change (4.0 vs. 0.0) (CHD2 expression): −1.217; Fold-Change (4.0 vs. 0.0) (CHIT1 expression): −1.207; Fold-Change (4.0 vs. 0.0) (CHRNA2 expression): −1.217; Fold-Change (4.0 vs. 0.0) (CIITA expression): −1.1982; Fold-Change (4.0 vs. 0.0) (CKM expression): −1.208; Fold-Change (1.0 vs. 0.0) (CLCA3P 220810_at, one month of treatment): −1.141; Fold-Change (4.0 vs. 0.0) (CLDN18 expression): −1.214; Fold-Change (1.0 vs. 0.0) (CLEC1B 220496_at, one month of treatment): −2.045; Fold-Change (4.0 vs. 0.0) (CLIC4 expression): −1.197; Fold-Change (1.0 vs. 0.0) (CLSTN2 219414_at, one month of treatment): −1.128; Fold-Change (4.0 vs. 0.0) (CLTB expression): −1.198; Fold-Change (4.0 vs. 0.0) (CNOT4 expression): −1.205; Fold-Change (4.0 vs. 0.0) (CPSF1 expression): −1.205; Fold-Change (4.0 vs. 0.0) (CRKL expression): −1.202; Fold-Change (4.0 vs. 0.0) (CRYGB expression): −1.207; Fold-Change (4.0 vs. 0.0) (CRYM expression): −1.201; Fold-Change (1.0 vs. 0.0) (CTNNAL1 202468_s_at, one month of treatment): −1.416; Fold-Change (1.0 vs. 0.0) (CTSA 200661_at, one month of treatment): −1.292; Fold-Change (1.0 vs. 0.0) (CXCL5 214974_x_at, one month of treatment): −1.731; Fold-Change (4.0 vs. 0.0) (CYP1B1 expression): −1.204
